According to patent publication US20240034776A1:
Numbering of substitutions follows the chain as printed. These are yes or no findings as the source states them, for the method shown. Some binding calls cover weakened binding; strength is not graded here. Values belong to the binder of their own block, whether it stands above or below them.

What was measured:
[1] = target: T1, ITPRIPL1 P8 polypeptide (human); test: ELISA, peptides coated at 1 µg/ml, antibody at 1 µg/ml
T1 sequence (peptide): RLLEMEFEERKRAAE

[2] = target: T1, ITPRIPL1 P8 polypeptide (human); test: peptide ELISA, retold in Example 25
[3] = target: T2, cynomolgus monkey ITPRIPL1 polypeptide corresponding to human ITPRIPL1 P8 (cynomolgus monkey); test: ELISA, peptide coated at 1 µg/ml, antibody at 0.5 µg/ml
T2 sequence (peptide): RLLEMEFEERKQAAE

binding [1]: binds
binding [2]: binds
B1: monoclonal antibody 18B12D1A6 (antibody, mouse IgG1, kappa, V domains shown)
VH: QVQLQQSGPELVKPGASVKMSCKASGYTFTDYVISWVKQRTGQGLEWIGEIFPRTGSTYFNENFKAKATLTADKSSNTAYMQLSSLTSEDSAAYFCAFITSVDWAMEYWGQGTSVTVSS
VL: DVVMTQIPLSLPVSLGDQASISCRSSQSLANSKGNTHLHWYLQKPGQSPKLLIYKVSNRFSGVPDRFSGSGSGTDFTLKISRVEAEDLGLYFCSQSTHVPYTFGGGTKLEIKR

binding [3]: binds
B2: monoclonal antibody 13B7A6H3 (antibody, mouse IgG1, kappa, V domains shown)
VH: B1 VH with K19R, A24T, T41P, F60Y, K67T
VL: B1 VL with I7T, Q27E, A30V, L90V, V99A
